From patent US20250025478A1
Results are given in words; binding and its absence hold for the method and conditions named. Binding seen in cells or lysates may run through a third protein. Some entries that bind do so weakly or less than the wild type.

Amino acid sequences for entries named in this document (tags omitted). A change or cut given only in a name is not applied to a line headed by its entry.
UniProt Q63HN8: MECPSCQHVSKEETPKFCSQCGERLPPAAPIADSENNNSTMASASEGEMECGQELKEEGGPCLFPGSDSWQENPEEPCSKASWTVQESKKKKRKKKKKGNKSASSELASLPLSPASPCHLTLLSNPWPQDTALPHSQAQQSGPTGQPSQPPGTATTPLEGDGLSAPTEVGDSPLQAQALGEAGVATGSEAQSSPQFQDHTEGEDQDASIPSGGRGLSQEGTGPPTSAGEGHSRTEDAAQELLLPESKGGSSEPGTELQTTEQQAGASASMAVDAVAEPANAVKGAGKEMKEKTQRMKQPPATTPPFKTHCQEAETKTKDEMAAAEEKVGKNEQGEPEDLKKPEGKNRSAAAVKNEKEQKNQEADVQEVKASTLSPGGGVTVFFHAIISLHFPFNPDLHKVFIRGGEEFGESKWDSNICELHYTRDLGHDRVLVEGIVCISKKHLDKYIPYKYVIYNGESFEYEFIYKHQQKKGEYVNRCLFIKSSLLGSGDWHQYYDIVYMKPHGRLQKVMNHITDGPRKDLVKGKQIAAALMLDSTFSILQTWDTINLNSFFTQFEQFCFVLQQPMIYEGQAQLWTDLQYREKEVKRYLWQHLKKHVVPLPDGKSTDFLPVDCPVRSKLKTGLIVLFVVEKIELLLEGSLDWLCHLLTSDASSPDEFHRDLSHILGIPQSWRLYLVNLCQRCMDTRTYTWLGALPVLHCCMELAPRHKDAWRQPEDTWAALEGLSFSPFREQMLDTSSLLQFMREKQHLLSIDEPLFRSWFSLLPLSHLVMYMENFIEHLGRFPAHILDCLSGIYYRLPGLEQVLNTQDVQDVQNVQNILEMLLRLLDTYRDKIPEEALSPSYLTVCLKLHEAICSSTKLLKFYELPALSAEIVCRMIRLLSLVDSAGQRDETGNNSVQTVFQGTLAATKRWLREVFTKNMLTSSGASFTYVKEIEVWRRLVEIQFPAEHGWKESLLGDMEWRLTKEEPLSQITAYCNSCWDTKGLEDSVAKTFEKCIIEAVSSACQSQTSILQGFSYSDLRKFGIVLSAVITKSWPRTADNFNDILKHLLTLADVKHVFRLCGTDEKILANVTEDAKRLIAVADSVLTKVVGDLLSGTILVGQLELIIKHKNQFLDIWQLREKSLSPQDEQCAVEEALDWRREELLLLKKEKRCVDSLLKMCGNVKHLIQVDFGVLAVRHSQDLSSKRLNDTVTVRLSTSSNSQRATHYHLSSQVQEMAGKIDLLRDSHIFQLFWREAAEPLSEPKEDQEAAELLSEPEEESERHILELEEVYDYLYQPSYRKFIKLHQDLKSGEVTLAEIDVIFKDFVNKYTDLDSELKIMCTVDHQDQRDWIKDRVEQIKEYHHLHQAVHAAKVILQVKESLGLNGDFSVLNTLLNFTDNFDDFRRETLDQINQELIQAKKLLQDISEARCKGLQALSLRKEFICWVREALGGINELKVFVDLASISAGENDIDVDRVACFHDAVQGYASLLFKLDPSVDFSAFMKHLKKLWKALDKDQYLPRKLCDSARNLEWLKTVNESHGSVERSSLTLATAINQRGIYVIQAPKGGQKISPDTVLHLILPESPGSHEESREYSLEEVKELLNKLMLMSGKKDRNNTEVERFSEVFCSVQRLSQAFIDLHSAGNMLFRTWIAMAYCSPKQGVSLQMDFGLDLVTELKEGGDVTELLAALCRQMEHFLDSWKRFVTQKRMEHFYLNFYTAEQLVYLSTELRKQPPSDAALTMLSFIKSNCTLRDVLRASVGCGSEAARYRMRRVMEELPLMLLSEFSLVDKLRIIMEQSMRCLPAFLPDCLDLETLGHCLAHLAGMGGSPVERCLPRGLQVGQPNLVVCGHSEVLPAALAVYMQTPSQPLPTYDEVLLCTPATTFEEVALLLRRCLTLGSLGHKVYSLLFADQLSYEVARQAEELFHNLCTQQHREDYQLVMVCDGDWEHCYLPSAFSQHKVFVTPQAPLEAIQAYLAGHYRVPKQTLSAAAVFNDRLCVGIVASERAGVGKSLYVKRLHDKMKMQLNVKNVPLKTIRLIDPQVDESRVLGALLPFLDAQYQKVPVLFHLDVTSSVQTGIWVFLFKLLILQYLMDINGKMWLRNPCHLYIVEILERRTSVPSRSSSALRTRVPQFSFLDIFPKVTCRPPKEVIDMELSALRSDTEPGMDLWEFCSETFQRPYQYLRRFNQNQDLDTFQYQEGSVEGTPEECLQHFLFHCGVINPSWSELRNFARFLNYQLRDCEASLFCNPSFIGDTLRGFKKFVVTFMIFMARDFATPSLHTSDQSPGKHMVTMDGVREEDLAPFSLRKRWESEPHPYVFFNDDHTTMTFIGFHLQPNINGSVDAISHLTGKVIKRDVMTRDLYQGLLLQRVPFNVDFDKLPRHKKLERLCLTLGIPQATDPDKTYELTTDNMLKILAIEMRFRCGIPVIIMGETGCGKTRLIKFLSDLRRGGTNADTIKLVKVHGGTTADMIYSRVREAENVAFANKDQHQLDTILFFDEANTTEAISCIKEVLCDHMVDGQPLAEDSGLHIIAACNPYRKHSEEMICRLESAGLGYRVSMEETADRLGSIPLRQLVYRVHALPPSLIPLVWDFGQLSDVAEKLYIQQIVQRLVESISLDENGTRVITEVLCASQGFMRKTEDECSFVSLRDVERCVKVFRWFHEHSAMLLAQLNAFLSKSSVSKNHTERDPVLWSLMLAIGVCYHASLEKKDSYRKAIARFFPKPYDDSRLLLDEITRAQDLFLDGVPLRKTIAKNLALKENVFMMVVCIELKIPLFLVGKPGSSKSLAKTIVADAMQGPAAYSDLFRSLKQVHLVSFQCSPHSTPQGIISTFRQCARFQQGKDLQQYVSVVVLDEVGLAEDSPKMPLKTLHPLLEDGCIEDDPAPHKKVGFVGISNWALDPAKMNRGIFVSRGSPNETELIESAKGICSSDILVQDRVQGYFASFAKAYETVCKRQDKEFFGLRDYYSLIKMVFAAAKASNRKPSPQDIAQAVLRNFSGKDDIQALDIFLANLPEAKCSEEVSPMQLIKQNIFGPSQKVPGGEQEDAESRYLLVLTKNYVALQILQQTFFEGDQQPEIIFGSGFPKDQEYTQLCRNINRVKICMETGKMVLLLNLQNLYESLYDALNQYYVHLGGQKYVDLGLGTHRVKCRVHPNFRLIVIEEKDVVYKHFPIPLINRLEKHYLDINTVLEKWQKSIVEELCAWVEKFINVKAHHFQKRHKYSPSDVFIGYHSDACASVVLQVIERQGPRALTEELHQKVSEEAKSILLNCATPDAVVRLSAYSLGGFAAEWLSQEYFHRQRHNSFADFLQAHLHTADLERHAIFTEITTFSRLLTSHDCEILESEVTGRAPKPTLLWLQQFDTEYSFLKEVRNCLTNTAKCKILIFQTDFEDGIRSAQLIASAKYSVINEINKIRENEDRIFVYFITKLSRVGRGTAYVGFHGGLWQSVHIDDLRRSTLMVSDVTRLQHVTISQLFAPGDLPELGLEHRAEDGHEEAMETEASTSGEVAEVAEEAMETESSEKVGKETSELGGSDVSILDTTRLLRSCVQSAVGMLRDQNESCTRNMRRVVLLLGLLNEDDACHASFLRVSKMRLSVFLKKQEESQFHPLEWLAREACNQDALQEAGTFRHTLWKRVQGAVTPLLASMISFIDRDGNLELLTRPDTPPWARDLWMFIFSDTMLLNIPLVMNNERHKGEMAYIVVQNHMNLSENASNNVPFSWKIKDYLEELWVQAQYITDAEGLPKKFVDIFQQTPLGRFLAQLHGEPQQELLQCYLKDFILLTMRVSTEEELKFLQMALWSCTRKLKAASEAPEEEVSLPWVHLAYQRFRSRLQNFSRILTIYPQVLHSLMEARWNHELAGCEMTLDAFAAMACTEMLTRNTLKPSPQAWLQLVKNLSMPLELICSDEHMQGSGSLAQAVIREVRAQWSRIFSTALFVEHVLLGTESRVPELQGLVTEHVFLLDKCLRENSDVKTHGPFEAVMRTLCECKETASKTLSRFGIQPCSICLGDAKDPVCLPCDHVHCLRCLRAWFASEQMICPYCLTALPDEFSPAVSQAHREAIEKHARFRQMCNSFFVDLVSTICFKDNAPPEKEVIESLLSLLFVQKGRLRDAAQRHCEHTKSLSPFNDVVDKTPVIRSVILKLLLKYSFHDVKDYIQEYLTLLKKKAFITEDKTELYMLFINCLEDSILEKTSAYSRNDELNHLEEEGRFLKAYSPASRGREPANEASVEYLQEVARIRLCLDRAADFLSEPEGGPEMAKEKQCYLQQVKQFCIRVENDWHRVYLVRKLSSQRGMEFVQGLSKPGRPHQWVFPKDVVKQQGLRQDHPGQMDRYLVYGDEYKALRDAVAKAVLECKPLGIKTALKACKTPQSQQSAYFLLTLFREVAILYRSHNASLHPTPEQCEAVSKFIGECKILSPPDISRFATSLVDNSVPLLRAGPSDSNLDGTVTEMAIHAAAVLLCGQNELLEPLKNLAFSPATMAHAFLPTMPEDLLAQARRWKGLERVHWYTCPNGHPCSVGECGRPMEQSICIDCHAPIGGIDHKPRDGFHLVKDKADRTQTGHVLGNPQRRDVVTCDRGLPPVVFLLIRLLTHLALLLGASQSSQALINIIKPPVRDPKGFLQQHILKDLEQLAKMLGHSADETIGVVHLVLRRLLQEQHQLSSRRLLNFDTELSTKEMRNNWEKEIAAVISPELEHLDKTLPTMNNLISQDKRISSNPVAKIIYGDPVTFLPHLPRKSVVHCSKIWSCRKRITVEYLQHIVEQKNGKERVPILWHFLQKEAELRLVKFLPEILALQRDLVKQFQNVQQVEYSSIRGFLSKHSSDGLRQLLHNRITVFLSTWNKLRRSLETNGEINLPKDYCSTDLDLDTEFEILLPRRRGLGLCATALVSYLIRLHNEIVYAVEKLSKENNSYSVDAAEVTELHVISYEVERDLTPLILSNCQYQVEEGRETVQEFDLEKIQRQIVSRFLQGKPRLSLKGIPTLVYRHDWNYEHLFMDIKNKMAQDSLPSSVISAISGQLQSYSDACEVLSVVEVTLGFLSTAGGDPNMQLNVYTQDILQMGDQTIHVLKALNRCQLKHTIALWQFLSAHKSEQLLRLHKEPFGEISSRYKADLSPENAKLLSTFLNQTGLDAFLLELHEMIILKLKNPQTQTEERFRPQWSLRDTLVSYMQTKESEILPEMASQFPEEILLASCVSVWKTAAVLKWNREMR

Columns and labels:
[1] = molecular target: GFP-RNF213 (Homo sapiens (Human)) (UniProt Q63HN8); assay: anti-FLAG co-immunoprecipitation/immunoblot of GFP-RNF213, AU565 RNF213-KO-PTPN1-KD cells (FIG. 7E)
[2] = molecular target: GFP-RNF213 (Homo sapiens (Human)) (UniProt Q63HN8); assay: anti-FLAG co-immunoprecipitation/immunoblot of GFP-RNF213, BT474 RNF213-KO-PTPN1-KD cells (FIG. 1C)
[3] = molecular target: GFP-RNF213 (Homo sapiens (Human)) (UniProt Q63HN8); assay: anti-FLAG co-immunoprecipitation/immunoblot (oligomerization)

Row | Substance | binding [1] | binding [2] | binding [3]
1 | 3×-FLAG-RNF213 (from UniProt Q63HN8 1-5207) (enzyme) | binds | binds | 
2 | 3×-FLAG-RNF213^Y1275F (from UniProt Q63HN8 1-5207) (enzyme) |  |  | binds
